Reference: PMC4975489, “The Arabidopsis Protein Phosphatase PP2C38 Negatively Regulates the Central Immune Kinase BIK1” (PLoS Pathogens, 2016)

Amino acid sequences for entries named in this document (tags omitted). A change or cut given only in a name is not applied to a line headed by its entry. Residues count along the entry.
UniProt C0LGT6, residues 25-1031: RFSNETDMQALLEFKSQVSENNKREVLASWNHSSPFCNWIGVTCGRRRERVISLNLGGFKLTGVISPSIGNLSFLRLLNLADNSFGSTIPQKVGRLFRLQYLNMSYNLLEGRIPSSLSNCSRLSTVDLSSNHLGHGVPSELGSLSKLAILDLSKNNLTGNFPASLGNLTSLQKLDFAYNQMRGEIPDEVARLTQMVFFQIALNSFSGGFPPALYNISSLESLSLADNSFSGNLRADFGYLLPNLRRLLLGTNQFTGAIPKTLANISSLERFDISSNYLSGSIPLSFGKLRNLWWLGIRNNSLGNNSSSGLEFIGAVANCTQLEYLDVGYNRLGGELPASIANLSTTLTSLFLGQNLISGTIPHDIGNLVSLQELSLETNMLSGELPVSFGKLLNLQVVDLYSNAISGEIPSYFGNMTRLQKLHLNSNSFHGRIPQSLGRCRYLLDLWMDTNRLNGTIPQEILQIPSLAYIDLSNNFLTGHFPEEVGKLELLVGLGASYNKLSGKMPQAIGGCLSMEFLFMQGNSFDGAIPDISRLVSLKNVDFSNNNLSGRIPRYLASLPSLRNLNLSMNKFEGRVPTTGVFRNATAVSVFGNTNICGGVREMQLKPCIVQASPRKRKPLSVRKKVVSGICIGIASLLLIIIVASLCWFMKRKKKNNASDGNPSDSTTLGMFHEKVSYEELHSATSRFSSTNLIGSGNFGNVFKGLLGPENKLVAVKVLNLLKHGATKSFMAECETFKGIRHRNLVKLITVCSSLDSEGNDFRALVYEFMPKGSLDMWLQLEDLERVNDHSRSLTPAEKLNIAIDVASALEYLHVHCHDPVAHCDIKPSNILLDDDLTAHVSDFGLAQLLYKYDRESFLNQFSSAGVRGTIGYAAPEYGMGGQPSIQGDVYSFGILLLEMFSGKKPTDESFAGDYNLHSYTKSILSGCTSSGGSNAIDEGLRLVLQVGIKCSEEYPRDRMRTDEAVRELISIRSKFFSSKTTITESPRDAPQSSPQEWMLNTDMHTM
UniProt Q9FL28: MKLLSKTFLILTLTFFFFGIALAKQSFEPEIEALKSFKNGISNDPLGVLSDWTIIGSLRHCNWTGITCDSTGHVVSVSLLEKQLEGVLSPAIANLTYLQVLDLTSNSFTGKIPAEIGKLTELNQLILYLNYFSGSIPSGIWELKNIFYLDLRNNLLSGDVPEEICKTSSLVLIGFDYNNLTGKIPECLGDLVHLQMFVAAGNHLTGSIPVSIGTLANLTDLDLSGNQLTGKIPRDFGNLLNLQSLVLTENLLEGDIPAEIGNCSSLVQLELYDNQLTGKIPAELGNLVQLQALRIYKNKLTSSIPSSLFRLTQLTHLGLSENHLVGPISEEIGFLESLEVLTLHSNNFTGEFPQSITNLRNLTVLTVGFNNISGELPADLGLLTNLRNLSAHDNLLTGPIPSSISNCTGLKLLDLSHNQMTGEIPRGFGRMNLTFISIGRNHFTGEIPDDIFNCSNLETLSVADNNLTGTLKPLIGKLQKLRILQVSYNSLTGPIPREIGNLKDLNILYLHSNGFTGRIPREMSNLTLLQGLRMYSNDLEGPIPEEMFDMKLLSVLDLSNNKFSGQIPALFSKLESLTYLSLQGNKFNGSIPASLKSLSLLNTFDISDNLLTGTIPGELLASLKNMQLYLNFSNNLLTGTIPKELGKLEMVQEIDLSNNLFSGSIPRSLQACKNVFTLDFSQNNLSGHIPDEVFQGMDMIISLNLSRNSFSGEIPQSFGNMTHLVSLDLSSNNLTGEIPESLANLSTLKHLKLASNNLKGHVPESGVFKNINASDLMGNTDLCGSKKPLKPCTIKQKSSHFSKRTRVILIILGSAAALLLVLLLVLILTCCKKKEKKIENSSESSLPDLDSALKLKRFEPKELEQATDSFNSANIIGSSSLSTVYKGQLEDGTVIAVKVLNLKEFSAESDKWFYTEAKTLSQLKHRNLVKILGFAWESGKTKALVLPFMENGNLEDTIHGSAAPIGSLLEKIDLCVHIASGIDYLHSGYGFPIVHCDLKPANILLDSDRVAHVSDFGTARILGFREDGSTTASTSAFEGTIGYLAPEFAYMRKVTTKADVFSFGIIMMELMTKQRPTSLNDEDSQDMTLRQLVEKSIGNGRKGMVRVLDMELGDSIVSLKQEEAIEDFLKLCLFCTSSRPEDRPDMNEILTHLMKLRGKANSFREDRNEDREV
UniProt Q93YW5: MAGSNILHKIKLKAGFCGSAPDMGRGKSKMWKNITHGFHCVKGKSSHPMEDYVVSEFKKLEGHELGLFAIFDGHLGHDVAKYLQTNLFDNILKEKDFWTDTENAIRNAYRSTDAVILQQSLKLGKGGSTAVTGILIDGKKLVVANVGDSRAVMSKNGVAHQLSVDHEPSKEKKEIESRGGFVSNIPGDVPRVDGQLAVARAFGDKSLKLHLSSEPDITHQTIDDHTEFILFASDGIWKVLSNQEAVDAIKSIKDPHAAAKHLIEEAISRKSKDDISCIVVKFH

Legend:
Assay in all cases: co-IP; proteins transiently co-expressed in N. benthamiana leaves, treated or not with 100 nM elf18 or flg22 for 20 min; GFP-Trap immunoprecipitation at 4°C, immunoblot
[1] = biological target: full-length EFR-GFP (Arabidopsis thaliana) (UniProt C0LGT6)
[2] = biological target: kinase-dead FLS2* (Arabidopsis thaliana) (UniProt Q9FL28)
[3] = biological target: kinase-dead EFR* (Arabidopsis thaliana) (UniProt C0LGT6)

Row | binding [1] | binding [2] | binding [3] | Molecule
1 | no binding |  |  | PP2C58-FLAG (from UniProt Q93YW5) (enzyme)
2 | no binding |  |  | PP2C58-HA (from UniProt Q93YW5) (enzyme)
3 |  | binds | binds | recombinant MBP-PP2C38 (enzyme, Arabidopsis thaliana, UniProt Q9LHJ9 1-385, looked up, PP2C38, protein phosphatase 2C of Arabidopsis thaliana (At3g12620); 'PP2C38 CDS was inserted between BamHI and SalI restriction sites of pMAL-c4E'; source: recombinant protein (PP2C38 CDS in pMAL-c4E, NEB)) MVSSATILRMVAPCWRRPSVKGDHSTRDANGRCDGLLWYKDSGNHVAGEFSMSVIQANNLLEDHSKLESGPVSMFDSGPQATFVGVYDGHGGPEAARFVNKHLFDNIRKFTSENHGMSANVITKAFLATEEDFLSLVRRQWQIKPQIASVGACCLVGIICSGLLYIANAGDSRVVLGRLEKAFKIVKAVQLSSEHNASLESVREELRSLHPNDPQIVVLKHKVWRVKGIIQVSRSIGDAYLKKAEFNREPLLAKFRVPEVFHKPILRAEPAITVHKIHPEDQFLIFASDGLWEHLSNQEAVDIVNTCPRNGIARKLIKTALREAAKKREMRYSDLKKIDRGVRRHFHDDITVIVVFLDSHLVSRSTSRRPLLSISGGGDLAGPST

No constants are given. Whether binding was seen depends on the method and setting. In cells and extracts the contact can be indirect. For some of these results: A result given as binding can be weak or reduced; the word gives no strength. For some of these results: Sequences can lack the tags named with a protein.
